## Results of single-concentration screens

The filed quantity is “Percent Effect” (%). The record does not define 0% and 100%; most values in the screen are far below 50% and negative numbers occur (in some assays of this library far below -100). This is an unselected part of the compounds tested.

Mtb glucose medium: 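Whole-cell growth test on Mycobacterium tuberculosis, read after 3 days in glucose-containing 7H9 medium; the read-out is not stated. Concentration: 500 µM. Higher reads as more growth inhibition (inferred: compounds with an IC50 in retests scored well above the rest). Size under these conditions: about 18,000 compounds, about 1,400 of them at 50% or above in at least one test.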
Mtb cholesterol medium: 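Phenotypic screen: M. tuberculosis growth, cholesterol and DPPC medium, 4 days; the read-out is not stated. Tested at 500 µM. Direction is inferred from retests: higher values go with more growth inhibition. Size under these conditions: about 18,000 compounds, about 900 of them at 50% or above in at least one test.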

{"structure": "NC(=O)CCn1ccc(NC(=O)C2=CCCCCC2)n1", "Mtb glucose medium": 17.17, "Mtb cholesterol medium": 10.47}
{"structure": "O=C(NCC(=O)N1CCCCCC1)c1ccco1", "Mtb glucose medium": 23.66, "Mtb cholesterol medium": 13.22}
{"structure": "CC(C)C[C@H](N)C(=O)N1CCOCC1", "Mtb glucose medium": -4.436, "Mtb cholesterol medium": 12.37}
{"structure": "COCCNC(=O)CN1CCCC1c1ccsc1", "stereo": "stereo not drawn", "Mtb glucose medium": 41.89, "Mtb cholesterol medium": 14.21}
{"structure": "CC(=O)c1cc(C(=O)NCC[C@@H]2CCCN2)cs1", "Mtb glucose medium": 12.12, "Mtb cholesterol medium": 5.877}
{"structure": "CC(C)N(Cc1ccccn1)C(=O)c1cc(Cl)c[nH]1", "Mtb glucose medium": 55.33, "Mtb cholesterol medium": 38.32}
{"structure": "COCCNC(=O)CN(C)CCc1ccccc1", "Mtb glucose medium": 42.76, "Mtb cholesterol medium": 40.75}
{"structure": "CN(C)S(=O)(=O)c1cccc(CN2CCCC(O)C2)c1", "stereo": "stereo not drawn", "Mtb glucose medium": 8.776, "Mtb cholesterol medium": 9.103}
{"structure": "C=C(C)COc1cccc(CNCCNS(C)(=O)=O)c1", "Mtb glucose medium": 12.09, "Mtb cholesterol medium": 16.21}
{"structure": "Cc1n[nH]cc1CNC(C)CO", "stereo": "stereo not drawn", "Mtb glucose medium": -2.67, "Mtb cholesterol medium": -5.663}
{"structure": "O=C(NCc1cccc2c1OCO2)c1cccnc1O", "Mtb glucose medium": 9.652, "Mtb cholesterol medium": 2.501}
{"structure": "CSc1ccc(NC(=O)CN2CCNC(=O)CC2)cc1", "Mtb glucose medium": 9.094, "Mtb cholesterol medium": -7.198}
{"structure": "OCCN1CCN(CCc2ccccc2)CC1", "Mtb glucose medium": 12.67, "Mtb cholesterol medium": 13.07}
{"structure": "N#Cc1cnn(C(=O)COCC2CC2)c1N", "Mtb glucose medium": 45.1, "Mtb cholesterol medium": 11.4}
{"structure": "Cn1nccc1NC(=O)N1CCOCC1C1CC1", "stereo": "stereo not drawn", "Mtb glucose medium": -5.839, "Mtb cholesterol medium": -12.72}
{"structure": "CCn1cc(S(=O)(=O)N2CCNCC2)c(C)n1", "Mtb glucose medium": 4.44, "Mtb cholesterol medium": 17.64}
{"structure": "COCCN(CC(N)=O)S(=O)(=O)N1CCCCC1C", "stereo": "stereo not drawn", "Mtb glucose medium": -2.225, "Mtb cholesterol medium": -15.59}
{"structure": "CCCNc1nnc(SCC(C)(C)O)s1", "Mtb glucose medium": 69.66, "Mtb cholesterol medium": 75.39}
{"structure": "CC(N)(CO)c1cccc(O)c1", "stereo": "stereo not drawn", "Mtb glucose medium": 4.775, "Mtb cholesterol medium": -1.759}
{"structure": "COC(=O)c1ccc(CCN)c(OC)c1", "Mtb glucose medium": 35.49, "Mtb cholesterol medium": 23.22}
{"structure": "Cn1cnc(S(=O)(=O)NC2(CN)CCCC2)c1", "Mtb glucose medium": -8.504, "Mtb cholesterol medium": 4.764}
{"structure": "CC1(C)CN(C(=O)C2CC2)CCO1", "Mtb glucose medium": 2.562, "Mtb cholesterol medium": 9.95}
{"structure": "CCSCCNC(=O)c1ccc2[nH]c(CO)nc2c1", "Mtb glucose medium": 16.74, "Mtb cholesterol medium": -10.71}
{"structure": "O=C(CN1CCC(O)CC1)NC(=O)Nc1ccccc1", "Mtb glucose medium": 10.6, "Mtb cholesterol medium": 5.64}
{"structure": "NCc1ccnc(O)c1", "Mtb glucose medium": -33.69, "Mtb cholesterol medium": -22.12}
{"structure": "CC(N)C(=O)N(C)C1CCOCC1", "stereo": "stereo not drawn", "Mtb glucose medium": 1.868, "Mtb cholesterol medium": 7.302}
{"structure": "CSc1cccc(NC(=O)N2CCC(O)(CO)C2)c1", "stereo": "stereo not drawn", "Mtb glucose medium": 21.82, "Mtb cholesterol medium": 20.97}
{"structure": "COC1(C)CN(C(=O)Nc2ccc(F)cc2)C1", "Mtb glucose medium": 42.85, "Mtb cholesterol medium": 33.17}
{"structure": "CCCc1cc(C(=O)NC(CC)c2nc(C)c[nH]2)[nH]n1", "stereo": "stereo not drawn", "Mtb glucose medium": -5.506, "Mtb cholesterol medium": -18.38}
{"structure": "CC(C)OC(C)C(=O)NCCNc1cccnc1", "stereo": "stereo not drawn", "Mtb glucose medium": 26.7, "Mtb cholesterol medium": 11.53}
{"structure": "Cc1n[nH]c(C)c1CN(CCC#N)CCC#N", "Mtb glucose medium": 7.721, "Mtb cholesterol medium": -6.609}
{"structure": "CC(C)NC(=O)c1sc(N2CCCC2)nc1N", "Mtb glucose medium": 5.033, "Mtb cholesterol medium": 2.354}
{"structure": "N[C@@H](CO)C(=O)N1CCC(Cc2ccc(F)cc2)CC1", "Mtb glucose medium": 53.03, "Mtb cholesterol medium": 38.1}
{"structure": "Cn1nccc1C(=O)NC1CCc2ccccc2OC1", "stereo": "stereo not drawn", "Mtb glucose medium": 53.82, "Mtb cholesterol medium": 22.25}
{"structure": "NC(Cc1ccccn1)C(F)(F)F", "stereo": "stereo not drawn", "Mtb glucose medium": -0.8107, "Mtb cholesterol medium": -5.804}
{"structure": "Cn1cc(Br)cc1C(=O)NCC1CCCO1", "stereo": "stereo not drawn", "Mtb glucose medium": 62.11, "Mtb cholesterol medium": 45.85}
{"structure": "CCn1cc(CN2CCN(C3CCOCC3)CC2)cn1", "Mtb glucose medium": -5.326, "Mtb cholesterol medium": -7.84}
{"structure": "CC1CS(=O)(=O)CCN1C(=O)COCC1CC1", "stereo": "stereo not drawn", "Mtb glucose medium": -1.386, "Mtb cholesterol medium": -17.05}
{"structure": "CN(C)C(=O)C1(N)CCCCC1", "Mtb glucose medium": -15.13, "Mtb cholesterol medium": -3.977}
{"structure": "CN(Cc1cc(C2CC2)[nH]n1)C(=O)Cc1cccnc1", "Mtb glucose medium": -4.867, "Mtb cholesterol medium": -2.098}
{"structure": "COc1cn(-c2ccccc2)nc1C(=O)NCC(C)C", "Mtb glucose medium": 67.38, "Mtb cholesterol medium": 69.07}
{"structure": "O=C1CCN(C(=O)c2ccc3ccccc3n2)CC1", "Mtb glucose medium": 48.65, "Mtb cholesterol medium": 14.65}
{"structure": "CC(C(=O)Nc1ccccc1)N1CCC(O)CC1", "stereo": "stereo not drawn", "Mtb glucose medium": 2.309, "Mtb cholesterol medium": 5.324}
{"structure": "COC(=O)C(C)(C)CNC(=O)c1cc(C#N)c[nH]1", "Mtb glucose medium": 1.933, "Mtb cholesterol medium": 1.99}

4 of the entries, repeated:

structure	Mtb glucose medium	Mtb cholesterol medium
COC1(C)CN(C(=O)Nc2ccc(F)cc2)C1	42.85%	33.17%
CCn1cc(S(=O)(=O)N2CCNCC2)c(C)n1	4.44%	17.64%
OCCN1CCN(CCc2ccccc2)CC1	12.67%	13.07%
COCCNC(=O)CN1CCCC1c1ccsc1 (stereo not drawn)	41.89%	14.21%

Measurements from “University of Dundee, Small-Polar-MMV Screening Library” (2021), ChEMBL document CHEMBL3988442.